Laboratory results taken from US20260276625A1, “SCREENING METHOD FOR COMPOUND INDUCING AUTOPHAGY” (TOHOKU UNIVERSITY, priority 2023, published 2026).
Some of these results come from one statement about several compounds together. At least one compound was matched to its structure with a doubt left.

Amino acid sequences for entries named in this document (tags omitted). A change or cut given only in a name is not applied to a line headed by its entry.
UniProt P17844: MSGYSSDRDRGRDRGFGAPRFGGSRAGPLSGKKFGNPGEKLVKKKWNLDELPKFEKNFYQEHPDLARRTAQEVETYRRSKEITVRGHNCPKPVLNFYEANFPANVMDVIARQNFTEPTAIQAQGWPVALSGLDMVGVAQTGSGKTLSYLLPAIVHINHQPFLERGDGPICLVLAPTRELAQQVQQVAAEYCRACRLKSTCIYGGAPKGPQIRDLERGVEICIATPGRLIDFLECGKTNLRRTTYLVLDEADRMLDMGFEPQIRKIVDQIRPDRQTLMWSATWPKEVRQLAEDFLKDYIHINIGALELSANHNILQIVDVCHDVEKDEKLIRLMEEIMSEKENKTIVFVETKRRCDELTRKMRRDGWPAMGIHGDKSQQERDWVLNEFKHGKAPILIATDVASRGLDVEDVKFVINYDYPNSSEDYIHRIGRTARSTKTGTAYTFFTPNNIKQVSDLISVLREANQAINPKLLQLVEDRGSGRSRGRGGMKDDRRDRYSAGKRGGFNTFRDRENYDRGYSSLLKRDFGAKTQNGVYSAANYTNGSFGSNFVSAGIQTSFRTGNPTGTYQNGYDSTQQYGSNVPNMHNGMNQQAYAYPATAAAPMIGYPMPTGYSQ

Assays:
[1] = target: T1, interaction between DDX5 and p62 (Homo sapiens, UniProt P17844); test: NanoBiT assay of interaction (proximity) between DDX5 and p62 in HeLa cells transfected with pLgBiT-p62 and pSmBiT-DDX5; format: cell-based; conditions: 10 μM; for emission intensity relative to that of cells treated with DMSO: 10 minutes after the start of measurement of luminescence; for emission intensity 10 minutes after the start of measurement of luminescence: mean of three independent experiments, graph capped at 10^7
T1 construct: expressed in transfected cells; host or cells: HeLa

[2] = test system: target intracellular molecule; conditions: confirmed by the inventors in J Med Chem 2023, 66 (17), 12342-12372; cited from earlier work

Row | SMILES | emission intensity relative to that of cells treated with DMSO ([1]; 24 hours treatment) | emission intensity 10 minutes after the start of measurement of luminescence [1] | induce degradation of a target intracellular molecule by autophagy [2] | emission intensity relative to that of cells treated with DMSO ([1]; 12 hours treatment)
1 | CC(=O)NC(CSc1nc2c(=O)[nH]c(N)nc2n1Cc1cccnc1)C(=O)NCCOCCOCCOCCOCCOCCCCCCCl (centres unmarked) [Compound 11] | ≥ 1000 times | ≥ 10^7 | induce degradation of a target intracellular molecule by autophagy | 
2 | Nc1nc2c(nc(NCC(=O)NCCOCCOCCOCCOCCOCCCCCCCl)n2Cc2ccc(F)cc2)c(=O)[nH]1 [Compound 21] | ≥ 1000 times | ≥ 10^7 | induce degradation of a target intracellular molecule by autophagy | 
3 | CC(=O)NC(CSc1nc2c(=O)[nH]c(N)nc2n1C1CCCCC1)C(=O)NCCOCCOCCOCCOCCOCCCCCCCl (centres unmarked) [Compound 17] | ≥ 1000 times | ≥ 10^7 | induce degradation of a target intracellular molecule by autophagy | 
4 | Nc1nc2c(nc(SCC(=O)NCCOCCOCCOCCOCCOCCCCCCCl)n2Cc2ccc(F)cc2)c(=O)[nH]1 [Compound 19] | ≥ 1000 times | ≥ 10^7 | induce degradation of a target intracellular molecule by autophagy | 
5 | Nc1nc2c(nc(C#CCOCCOCCOCCOCCOCCOCCCCCCCl)n2Cc2ccc(F)cc2)c(=O)[nH]1 [Compound 26] | ≥ 1000 times | ≥ 10^7 | induce degradation of a target intracellular molecule by autophagy | 
6 | Nc1nc2c(nc([N+](=O)[O-])n2[C@@H]2O[C@@H]3COP(=O)(O)OC3C2O)c(=O)[nH]1 (some centres unmarked) [8-nitro-cGMP, reference compound] | ≥ 1000 times | ≥ 10^7 |  | 
7 | CC(=O)N[C@@H](CSc1nc2c(=O)[nH]c(N)nc2n1Cc1ccc(F)cc1)C(=O)NCCCOCCOCCOCCCCNC(=O)C(=O)c1c(-c2ccccc2)[nH]c2ccccc12 [AUTAC4-2G] |  | ≥ 10^7 |  | ≥ 1000 times
8 | CC(=O)NC(CSc1nc2c(=O)[nH]c(N)nc2n1Cc1ccccc1)C(=O)NCCOCCOCCOCCOCCOCCCCCCCl (centres unmarked) [Compound 6] | ≥ 1000 times | ≥ 10^7 | induce degradation of a target intracellular molecule by autophagy | 
9 | CC(=O)NC(CSc1nc2c(=O)[nH]c(N)nc2n1-c1ccccc1)C(=O)NCCOCCOCCOCCOCCOCCCCCCCl (centres unmarked) [Compound 16] | ≥ 1000 times | ≥ 10^7 | induce degradation of a target intracellular molecule by autophagy | 
10 | Nc1nc2c(nc(-c3cnn(CCOCCOCCOCCOCCOCCCCCCCl)c3)n2Cc2ccc(F)cc2)c(=O)[nH]1 [Compound 32] | ≥ 1000 times | ≥ 10^7 | induce degradation of a target intracellular molecule by autophagy | 
11 | CC(=O)NC(CSc1nc2c(=O)[nH]c(N)nc2n1C1CCCC1)C(=O)NCCOCCOCCOCCOCCOCCCCCCCl (centres unmarked) [Compound 15] | ≥ 1000 times | ≥ 10^7 | induce degradation of a target intracellular molecule by autophagy | 
12 | CC(=O)NC(CSc1nc2c(=O)[nH]c(N)nc2n1Cc1ccc(S(C)(=O)=O)cc1)C(=O)NCCOCCOCCOCCOCCOCCCCCCCl (centres unmarked) [Compound 10] | ≥ 1000 times | ≥ 10^7 | induce degradation of a target intracellular molecule by autophagy | 
13 | Nc1nc2c(nc(CCCOCCOCCOCCOCCOCCOCCCCCCCl)n2Cc2ccc(F)cc2)c(=O)[nH]1 [Compound 27] | ≥ 1000 times | ≥ 10^7 | induce degradation of a target intracellular molecule by autophagy | 
14 | CC(=O)NC(CSc1nc2c(=O)[nH]c(N)nc2n1Cc1cncs1)C(=O)NCCOCCOCCOCCOCCOCCCCCCCl (centres unmarked) [Compound 13] | ≥ 1000 times | ≥ 10^7 | induce degradation of a target intracellular molecule by autophagy | 
15 | Nc1nc2c(nc(-c3cccc(C(=O)NCCOCCOCCOCCOCCOCCCCCCCl)c3)n2Cc2ccc(F)cc2)c(=O)[nH]1 [Compound 29] | ≥ 1000 times | ≥ 10^7 | induce degradation of a target intracellular molecule by autophagy | 
16 | Nc1nc2c(nc(NCCC(=O)NCCOCCOCCOCCOCCOCCCCCCCl)n2Cc2ccc(F)cc2)c(=O)[nH]1 [Compound 20] | ≥ 1000 times | ≥ 10^7 | induce degradation of a target intracellular molecule by autophagy | 
17 | Nc1nc2c(nc(-c3ccc(C(=O)NCCOCCOCCOCCOCCOCCCCCCCl)cc3)n2Cc2ccc(F)cc2)c(=O)[nH]1 [Compound 28] | ≥ 1000 times | ≥ 10^7 | induce degradation of a target intracellular molecule by autophagy | 
18 | CC(=O)NC(CSc1nc2c(=O)[nH]c(N)nc2n1Cc1ccc(Cl)cc1)C(=O)NCCOCCOCCOCCOCCOCCCCCCCl (centres unmarked) [Compound 5] | ≥ 1000 times | ≥ 10^7 | induce degradation of a target intracellular molecule by autophagy | 
19 | Nc1nc2c(nc(C(=O)NCCOCCOCCOCCOCCOCCCCCCCl)n2Cc2ccc(F)cc2)c(=O)[nH]1 [Compound 24] | ≥ 1000 times | ≥ 10^7 | induce degradation of a target intracellular molecule by autophagy | 
20 | COc1ccc(Cn2c(SCC(NC(C)=O)C(=O)NCCOCCOCCOCCOCCOCCCCCCCl)nc3c(=O)[nH]c(N)nc32)cc1 (centres unmarked) [Compound 9] | ≥ 1000 times | ≥ 10^7 | induce degradation of a target intracellular molecule by autophagy | 
21 | Nc1nc2c(nc(CCC(=O)NCCOCCOCCOCCOCCOCCCCCCCl)n2Cc2ccc(F)cc2)c(=O)[nH]1 [Compound 22] | ≥ 1000 times | ≥ 10^7 | induce degradation of a target intracellular molecule by autophagy | 
22 | Nc1nc2c(nc(CNCCOCCOCCOCCOCCOCCCCCCCl)n2Cc2ccc(F)cc2)c(=O)[nH]1 [Compound 23] | ≥ 1000 times | ≥ 10^7 | induce degradation of a target intracellular molecule by autophagy | 
23 | Nc1nc2c(nc(SCCC(=O)NCCOCCOCCOCCOCCOCCCCCCCl)n2Cc2ccc(F)cc2)c(=O)[nH]1 [Compound 18] | ≥ 1000 times | ≥ 10^7 | induce degradation of a target intracellular molecule by autophagy | 
24 | CCC(C)(C)C(=O)C(=O)N1CCCC[C@H]1C(=O)O[C@H](CCc1ccc(OC)c(OC)c1)c1cccc(NC(=O)CCC(=O)NCCCOCCOCCOCCCn2cc(-c3nc4c(=O)[nH]c(N)nc4n3Cc3ccc(F)cc3)cn2)c1 [AUTAC2-2G] |  | ≥ 10^7 |  | ≥ 1000 times
25 | Nc1nc2c(nc(-c3ccc(OCCOCCOCCOCCOCCOCCCCCCCl)cc3)n2Cc2ccc(F)cc2)c(=O)[nH]1 [Compound 31] | ≥ 1000 times | ≥ 10^7 | induce degradation of a target intracellular molecule by autophagy | 
26 | Nc1nc2c(nc(-c3cn(CCOCCOCCOCCOCCOCCCCCCCl)nn3)n2Cc2ccc(F)cc2)c(=O)[nH]1 [Compound 33] | ≥ 1000 times | ≥ 10^7 | induce degradation of a target intracellular molecule by autophagy | 
27 | CC(=O)NC(CSc1nc2c(=O)[nH]c(N)nc2n1Cc1ccc(C#N)cc1)C(=O)NCCOCCOCCOCCOCCOCCCCCCCl (centres unmarked) [Compound 8] | ≥ 1000 times | ≥ 10^7 | induce degradation of a target intracellular molecule by autophagy | 
28 | CC(=O)NC(CSc1nc2c(=O)[nH]c(N)nc2n1CC1CCOCC1)C(=O)NCCOCCOCCOCCOCCOCCCCCCCl (centres unmarked) [Compound 12] | ≥ 1000 times | ≥ 10^7 | induce degradation of a target intracellular molecule by autophagy | 
29 | Nc1nc2c(ncn2Cc2ccc(F)cc2)c(=O)[nH]1 [FBnG] | ≥ 1000 times | ≥ 10^7 |  | 
